From paper PMC11846196
Results are given in words; binding and its absence hold for the method and conditions named. Binding seen in cells or lysates may run through a third protein. Some results given as binding are weak or reduced against the parent protein; the word gives no strength.

Chains of the proteins cited; added tags and fusions are not shown.
UniProt Q7L576: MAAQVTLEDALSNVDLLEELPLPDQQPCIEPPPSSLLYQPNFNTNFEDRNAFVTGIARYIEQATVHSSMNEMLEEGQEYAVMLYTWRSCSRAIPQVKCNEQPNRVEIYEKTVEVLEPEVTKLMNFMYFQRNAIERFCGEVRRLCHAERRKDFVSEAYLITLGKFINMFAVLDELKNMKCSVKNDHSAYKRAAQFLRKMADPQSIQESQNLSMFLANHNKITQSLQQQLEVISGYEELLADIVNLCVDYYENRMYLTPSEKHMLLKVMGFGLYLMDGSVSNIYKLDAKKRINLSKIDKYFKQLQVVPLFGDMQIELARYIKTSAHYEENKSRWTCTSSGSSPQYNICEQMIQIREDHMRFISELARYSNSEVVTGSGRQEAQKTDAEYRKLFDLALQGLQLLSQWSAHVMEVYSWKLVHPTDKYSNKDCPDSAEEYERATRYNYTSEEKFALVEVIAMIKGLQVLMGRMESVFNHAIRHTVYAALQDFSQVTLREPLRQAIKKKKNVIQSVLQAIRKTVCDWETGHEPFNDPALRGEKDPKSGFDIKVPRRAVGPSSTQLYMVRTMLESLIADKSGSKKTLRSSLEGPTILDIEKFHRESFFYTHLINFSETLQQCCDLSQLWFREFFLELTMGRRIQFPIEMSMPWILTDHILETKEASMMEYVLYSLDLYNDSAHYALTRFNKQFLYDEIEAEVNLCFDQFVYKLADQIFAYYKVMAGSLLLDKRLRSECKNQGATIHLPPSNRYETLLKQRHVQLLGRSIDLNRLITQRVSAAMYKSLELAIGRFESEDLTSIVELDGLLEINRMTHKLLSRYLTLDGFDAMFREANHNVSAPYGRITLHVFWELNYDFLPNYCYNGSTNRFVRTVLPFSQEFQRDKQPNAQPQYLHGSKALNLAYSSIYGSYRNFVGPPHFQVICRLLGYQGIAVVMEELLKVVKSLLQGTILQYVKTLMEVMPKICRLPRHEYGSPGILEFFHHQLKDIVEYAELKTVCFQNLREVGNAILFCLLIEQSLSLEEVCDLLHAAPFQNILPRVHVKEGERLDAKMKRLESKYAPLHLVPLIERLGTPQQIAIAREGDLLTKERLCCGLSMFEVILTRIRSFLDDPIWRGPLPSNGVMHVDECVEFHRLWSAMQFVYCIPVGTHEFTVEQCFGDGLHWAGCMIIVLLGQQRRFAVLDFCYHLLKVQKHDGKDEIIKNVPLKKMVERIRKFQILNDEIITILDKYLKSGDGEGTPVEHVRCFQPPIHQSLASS
UniProt O43148: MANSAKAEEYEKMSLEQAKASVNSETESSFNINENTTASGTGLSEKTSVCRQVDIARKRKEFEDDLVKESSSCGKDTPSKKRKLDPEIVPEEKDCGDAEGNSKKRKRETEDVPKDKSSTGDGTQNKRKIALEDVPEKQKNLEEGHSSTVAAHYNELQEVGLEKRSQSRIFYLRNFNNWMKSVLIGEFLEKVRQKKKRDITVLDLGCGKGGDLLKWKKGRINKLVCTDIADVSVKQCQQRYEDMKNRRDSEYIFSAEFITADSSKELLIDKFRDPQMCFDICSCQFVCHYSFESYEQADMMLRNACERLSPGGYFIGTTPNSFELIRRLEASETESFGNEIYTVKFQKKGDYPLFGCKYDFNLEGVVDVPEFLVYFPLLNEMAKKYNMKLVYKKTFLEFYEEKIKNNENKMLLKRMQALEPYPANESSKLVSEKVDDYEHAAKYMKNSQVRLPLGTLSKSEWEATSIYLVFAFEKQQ

Biological target: Cytoplasmic FMR1 Interacting Protein 1 (human (in U2OS / OS cells)) (UniProt Q7L576)
Assay: co-IP; OS cell lysate in Pierce IP Lysis Buffer, 5 ug anti-CYFIP1 antibody with magnetic beads overnight at 4 C, western blotting

With “RNA Guanine-7 Methyltransferase (from UniProt O43148 1-476) (enzyme)” the binding was “binds”.
